The values below come from article PMC9659096.

For this test, the target named is T1, sodium iodide symporter (NIS) with an extracellular triple HA tag (UniProt Q92911).
T1 sequence: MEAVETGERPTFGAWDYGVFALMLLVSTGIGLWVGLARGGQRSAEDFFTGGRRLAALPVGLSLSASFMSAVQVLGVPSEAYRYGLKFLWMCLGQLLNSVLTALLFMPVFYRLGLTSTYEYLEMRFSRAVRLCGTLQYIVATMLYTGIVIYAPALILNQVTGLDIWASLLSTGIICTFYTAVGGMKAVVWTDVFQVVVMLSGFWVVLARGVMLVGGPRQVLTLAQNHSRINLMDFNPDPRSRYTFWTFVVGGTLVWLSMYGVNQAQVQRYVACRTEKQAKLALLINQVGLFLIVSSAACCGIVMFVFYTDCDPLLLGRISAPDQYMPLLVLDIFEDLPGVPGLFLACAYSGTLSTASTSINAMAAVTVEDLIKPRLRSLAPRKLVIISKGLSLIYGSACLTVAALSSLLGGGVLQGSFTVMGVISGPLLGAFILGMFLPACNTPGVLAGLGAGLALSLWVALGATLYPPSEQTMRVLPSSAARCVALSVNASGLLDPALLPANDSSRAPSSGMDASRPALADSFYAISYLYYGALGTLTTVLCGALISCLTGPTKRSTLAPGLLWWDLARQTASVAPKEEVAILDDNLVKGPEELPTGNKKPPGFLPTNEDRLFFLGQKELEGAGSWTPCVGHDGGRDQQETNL
Description: co-IP; cell surface HA-NIS of HA-NIS-TPC1 cells in ice-cold PBS++ captured with rabbit anti-HA (4 ug/mL) coupled to Dynabeads G-protein beads; rabbit anti-goat IgG as control; partners detected by Western blot. A general note: Immunoblotting shows a protein as a band on a membrane.

No constants are given. Whether binding was seen depends on the method and setting. Binding seen in cells or lysates may run through a third protein. Some results given as binding are weak or reduced against the parent protein; the word gives no strength. Sequences can lack the tags named with a protein.

B1: P120-catenin (CTNND1) (protein, UniProt O60716 1-968)
chain: MDDSEVESTASILASVKEQEAQFEKLTRALEEERRHVSAQLERVRVSPQDANPLMANGTLTRRHQNGRFVGDADLERQKFSDLKLNGPQDHSHLLYSTIPRMQEPGQIVETYTEEDPEGAMSVVSVETSDDGTTRRTETTVKKVVKTVTTRTVQPVAMGPDGLPVDASSVSNNYIQTLGRDFRKNGNGGPGPYVGQAGTATLPRNFHYPPDGYSRHYEDGYPGGSDNYGSLSRVTRIEERYRPSMEGYRAPSRQDVYGPQPQVRVGGSSVDLHRFHPEPYGLEDDQRSMGYDDLDYGMMSDYGTARRTGTPSDPRRRLRSYEDMIGEEVPSDQYYWAPLAQHERGSLASLDSLRKGGPPPPNWRQPELPEVIAMLGFRLDAVKSNAAAYLQHLCYRNDKVKTDVRKLKGIPVLVGLLDHPKKEVHLGACGALKNISFGRDQDNKIAIKNCDGVPALVRLLRKARDMDLTEVITGTLWNLSSHDSIKMEIVDHALHALTDEVIIPHSGWEREPNEDCKPRHIEWESVLTNTAGCLRNVSSERSEARRKLRECDGLVDALIFIVQAEIGQKDSDSKLVENCVCLLRNLSYQVHREIPQAERYQEAAPNVANNTGPHAASCFGAKKGKDEWFSRGKKPIEDPANDTVDFPKRTSPARGYELLFQPEVVRIYISLLKESKTPAILEASAGAIQNLCAGRWTYGRYIRSALRQEKALSAIADLLTNEHERVVKAASGALRNLAVDARNKELIGKHAIPNLVKNLPGGQQNSSWNFSEDTVISILNTINEVIAENLEAAKKLRETQGIEKLVLINKSGNRSEKEVRAAALVLQTIWGYKELRKPLEKEGWKKSDFQVNLNNASRSQSSHSYDDSTLPLIDRNQKSDKKPDREEIQMSNMGSNTKSLDNNYSTPNERGDHNRTLDRSGDLGDMEPLKGTTPLMQDEGQESLEEELDVLVLDDEGGQVSYPSMQKI
As to B1, the binding entry was “binds”.

B2: VAV2 exchange factor (protein, UniProt P52735 1-878)
chain: MEQWRQCGRWLIDCKVLPPNHRVVWPSAVVFDLAQALRDGVLLCQLLHNLSPGSIDLKDINFRPQMSQFLCLKNIRTFLKVCHDKFGLRNSELFDPFDLFDVRDFGKVISAVSRLSLHSIAQNKGIRPFPSEETTENDDDVYRSLEELADEHDLGEDIYDCVPCEDGGDDIYEDIIKVEVQQPMIRYMQKMGMTEDDKRNCCLLEIQETEAKYYRTLEDIEKNYMSPLRLVLSPADMAAVFINLEDLIKVHHSFLRAIDVSVMVGGSTLAKVFLDFKERLLIYGEYCSHMEHAQNTLNQLLASREDFRQKVEECTLKVQDGKFKLQDLLVVPMQRVLKYHLLLKELLSHSAERPERQQLKEALEAMQDLAMYINEVKRDKETLRKISEFQSSIENLQVKLEEFGRPKIDGELKVRSIVNHTKQDRYLFLFDKVVIVCKRKGYSYELKEIIELLFHKMTDDPMNNKDVKKSHGKMWSYGFYLIHLQGKQGFQFFCKTEDMKRKWMEQFEMAMSNIKPDKANANHHSFQMYTFDKTTNCKACKMFLRGTFYQGYMCTKCGVGAHKECLEVIPPCKFTSPADLDASGAGPGPKMVAMQNYHGNPAPPGKPVLTFQTGDVLELLRGDPESPWWEGRLVQTRKSGYFPSSSVKPCPVDGRPPISRPPSREIDYTAYPWFAGNMERQQTDNLLKSHASGTYLIRERPAEAERFAISIKFNDEVKHIKVVEKDNWIHITEAKKFDSLLELVEYYQCHSLKESFKQLDTTLKYPYKSRERSASRASSRSPASCASYNFSFLSPQGLSFASQGPSAPFWSVFTPRVIGTAVARYNFAARDMRELSLREGDVVRIYSRIGGDQGWWKGETNGRIGWFPSTYVEEEGIQ
Regarding B2, the binding entry is “no binding”.
